Data on one molecule can be found in patent US10768157B2, “Materials and methods for the detection of trace amounts of substances in biological and environmental samples” (THE FLORIDA INTERNATIONAL UNIVERSITY BOARD OF TRUSTEES, priority 2015, dated 2020).

The nature of the assay: Maximum adsorption capacity of the sol-gel molecularly imprinted sorbent (six sulfa drugs). It counts as binding. The following applies: 30 mg MIP, mixture of 6 sulfa drugs 10-1000 mg/L. The protocol: In order to calculate the sorption capacity at equilibrium a SPE cartridge packed with 30 mg of MIP particles was used. Experiments under optimum conditions were carried out sequentially on the same SPE cartridge. In each subsequent test, the initial concentration was increased in a range 10-1000 ng μL^-1 and the final concentration was determined by HPLC-DAD. The amount of adsorbed (mg/g) was calculated by using the formula reported by Vanderborght and Van […]:00002} Were Ci is the initial concentration (mg/L), Ce is the equilibrium concentration (mg/L), V is the volume (L) and m is the mass (g) of the adsorbent. […] The final Ce concentrations were calculated on HPLC. The maximum capacity (Q, mg/g) for each of the six compounds was determined with the above equation. The results are represented in FIG. 12.

With `Nc1ccc(S(N)(=O)=O)cc1` [Sulfanilamide], the “Adsorption Capacity, Q” value was 6.0 mg/g.
